Results are given in words; binding and its absence hold for the method and conditions named. Binding seen in cells or lysates may run through a third protein. Here binding means that the protein was enriched with, or labelled near, the bait; the list need not be complete. Tags and fused reporters may be left off the sequences shown. Values belong to the binder of their own block, whether it stands above or below them.
Molecular target: T1, SA1 (Stromalin Antigen 1, STAG1) (human (endogenous in HCT116)) (UniProt Q8WVM7)
T1 sequence: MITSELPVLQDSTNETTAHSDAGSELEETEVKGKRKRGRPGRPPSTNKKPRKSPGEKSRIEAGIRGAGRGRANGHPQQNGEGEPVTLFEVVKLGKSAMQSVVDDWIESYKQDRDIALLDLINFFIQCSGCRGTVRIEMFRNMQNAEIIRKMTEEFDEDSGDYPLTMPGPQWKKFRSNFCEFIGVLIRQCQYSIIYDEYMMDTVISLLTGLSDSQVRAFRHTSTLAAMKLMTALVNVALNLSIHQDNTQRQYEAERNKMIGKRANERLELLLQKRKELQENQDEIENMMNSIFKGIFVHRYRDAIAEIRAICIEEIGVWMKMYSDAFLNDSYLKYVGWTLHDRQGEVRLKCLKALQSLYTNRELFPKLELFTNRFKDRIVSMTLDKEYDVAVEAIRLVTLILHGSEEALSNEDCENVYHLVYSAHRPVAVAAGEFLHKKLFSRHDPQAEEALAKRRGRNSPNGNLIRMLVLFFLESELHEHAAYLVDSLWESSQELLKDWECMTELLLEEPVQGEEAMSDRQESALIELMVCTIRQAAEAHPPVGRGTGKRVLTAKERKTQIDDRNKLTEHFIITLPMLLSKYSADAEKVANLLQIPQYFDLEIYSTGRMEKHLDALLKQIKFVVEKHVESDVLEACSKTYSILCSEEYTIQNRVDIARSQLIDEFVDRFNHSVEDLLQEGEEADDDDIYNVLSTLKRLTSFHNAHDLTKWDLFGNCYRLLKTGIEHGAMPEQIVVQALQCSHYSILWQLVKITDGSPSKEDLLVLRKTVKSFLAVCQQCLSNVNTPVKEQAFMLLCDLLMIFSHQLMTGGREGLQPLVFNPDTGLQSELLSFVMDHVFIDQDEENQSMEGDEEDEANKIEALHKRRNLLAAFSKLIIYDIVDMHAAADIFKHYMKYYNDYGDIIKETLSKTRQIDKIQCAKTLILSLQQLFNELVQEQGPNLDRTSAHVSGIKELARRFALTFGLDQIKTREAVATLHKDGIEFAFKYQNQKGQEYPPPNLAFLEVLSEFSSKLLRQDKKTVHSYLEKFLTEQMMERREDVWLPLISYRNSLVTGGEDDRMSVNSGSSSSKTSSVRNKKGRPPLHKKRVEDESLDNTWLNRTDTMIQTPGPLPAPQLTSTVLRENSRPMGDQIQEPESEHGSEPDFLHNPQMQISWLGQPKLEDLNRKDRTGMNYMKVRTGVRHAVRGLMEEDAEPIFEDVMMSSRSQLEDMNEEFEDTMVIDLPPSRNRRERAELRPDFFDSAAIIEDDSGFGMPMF
Experiment: affinity purification with mass spectrometry

binding: binds
B1: ESYT2 (protein, UniProt A0FGR8 1-921)
chain: MTANRDAALSSHRHPGCAQRPRTPTFASSSQRRSAFGFDDGNFPGLGERSHAPGSRLGARRRAKTARGLRGHRQRGAGAGLSRPGSARAPSPPRPGGPENPGGVLSVELPGLLAQLARSFALLLPVYALGYLGLSFSWVLLALALLAWCRRSRGLKALRLCRALALLEDEERVVRLGVRACDLPAWVHFPDTERAEWLNKTVKHMWPFICQFIEKLFRETIEPAVRGANTHLSTFSFTKVDVGQQPLRINGVKVYTENVDKRQIILDLQISFVGNCEIDLEIKRYFCRAGVKSIQIHGTMRVILEPLIGDMPLVGALSIFFLRKPLLEINWTGLTNLLDVPGLNGLSDTIILDIISNYLVLPNRITVPLVSEVQIAQLRFPVPKGVLRIHFIEAQDLQGKDTYLKGLVKGKSDPYGIIRVGNQIFQSRVIKENLSPKWNEVYEALVYEHPGQELEIELFDEDPDKDDFLGSLMIDLIEVEKERLLDEWFTLDEVPKGKLHLRLEWLTLMPNASNLDKVLTDIKADKDQANDGLSSALLILYLDSARNLPSGKKISSNPNPVVQMSVGHKAQESKIRYKTNEPVWEENFTFFIHNPKRQDLEVEVRDEQHQCSLGNLKVPLSQLLTSEDMTVSQRFQLSNSGPNSTIKMKIALRVLHLEKRERPPDHQHSAQVKRPSVSKEGRKTSIKSHMSGSPGPGGSNTAPSTPVIGGSDKPGMEEKAQPPEAGPQGLHDLGRSSSSLLASPGHISVKEPTPSIASDISLPIATQELRQRLRQLENGTTLGQSPLGQIQLTIRHSSQRNKLIVVVHACRNLIAFSEDGSDPYVRMYLLPDKRRSGRRKTHVSKKTLNPVFDQSFDFSVSLPEVQRRTLDVAVKNSGGFLSKDKGLLGKVLVALASEELAKGWTQWYDLTEDGTRPQAMT

binding: binds
B2: DHX29 (protein, UniProt Q7Z478 1-1369)
chain: MGGKNKKHKAPAAAVVRAAVSASRAKSAEAGIAGEAQSKKPVSRPATAAAAAAGSREPRVKQGPKIYSFNSTNDSSGPANLDKSILKVVINNKLEQRIIGVINEHKKQNNDKGMISGRLTAKKLQDLYMALQAFSFKTKDIEDAMTNTLLYGGDLHSALDWLCLNLSDDALPEGFSQEFEEQQPKSRPKFQSPQIQATISPPLQPKTKTYEEDPKSKPKKEEKNMEVNMKEWILRYAEQQNEEEKNENSKSLEEEEKFDPNERYLHLAAKLLDAKEQAATFKLEKNKQGQKEAQEKIRKFQREMETLEDHPVFNPAMKISHQQNERKKPPVATEGESALNFNLFEKSAAATEEEKDKKKEPHDVRNFDYTARSWTGKSPKQFLIDWVRKNLPKSPNPSFEKVPVGRYWKCRVRVIKSEDDVLVVCPTILTEDGMQAQHLGATLALYRLVKGQSVHQLLPPTYRDVWLEWSDAEKKREELNKMETNKPRDLFIAKLLNKLKQQQQQQQQHSENKRENSEDPEESWENLVSDEDFSALSLESANVEDLEPVRNLFRKLQSTPKYQKLLKERQQLPVFKHRDSIVETLKRHRVVVVAGETGSGKSTQVPHFLLEDLLLNEWEASKCNIVCTQPRRISAVSLANRVCDELGCENGPGGRNSLCGYQIRMESRACESTRLLYCTTGVLLRKLQEDGLLSNVSHVIVDEVHERSVQSDFLLIILKEILQKRSDLHLILMSATVDSEKFSTYFTHCPILRISGRSYPVEVFHLEDIIEETGFVLEKDSEYCQKFLEEEEEVTINVTSKAGGIKKYQEYIPVQTGAHADLNPFYQKYSSRTQHAILYMNPHKINLDLILELLAYLDKSPQFRNIEGAVLIFLPGLAHIQQLYDLLSNDRRFYSERYKVIALHSILSTQDQAAAFTLPPPGVRKIVLATNIAETGITIPDVVFVIDTGRTKENKYHESSQMSSLVETFVSKASALQRQGRAGRVRDGFCFRMYTRERFEGFMDYSVPEILRVPLEELCLHIMKCNLGSPEDFLSKALDPPQLQVISNAMNLLRKIGACELNEPKLTPLGQHLAALPVNVKIGKMLIFGAIFGCLDPVATLAAVMTEKSPFTTPIGRKDEADLAKSALAMADSDHLTIYNAYLGWKKARQEGGYRSEITYCRRNFLNRTSLLTLEDVKQELIKLVKAAGFSSSTTSTSWEGNRASQTLSFQEIALLKAVLVAGLYDNVGKIIYTKSVDVTEKLACIVETAQGKAQVHPSSVNRDLQTHGWLLYQEKIRYARVYLRETTLITPFPVLLFGGDIEVQHRERLLSIDGWIYFQAPVKIAVIFKQLRVLIDSVLRKKLENPKMSLENDKILQIITELIKTENN

— paper doi:10.1101/2021.02.20.432055
